Assay results: PubChem BioAssay AID2685 (National Center for Advancing Translational Sciences (NCATS), 2010)
This is one part of the list. Shown are side measurements of this screen, not its main read-out; they come without a call. The list favours compounds with an active or inconclusive main result. Potencies come from curve fits of mixed quality, noted in brackets.

Assay: qHTS Assay for Lipid Storage Modulators in Drosophila S3 Cells;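 for cell number change: cells counted by Cell Tracker Red CMTPX staining in the red channel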
Details: BODIPY lipid droplet fluorescence, 18-24 h; for cell number change: measured here: cell count max response, cells fed with added oleic acid
Outline: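 Drosophila S3 cells loaded with oleic acid (400 uM, as added) and compounds at several concentrations; lipid droplets imaged by 488-nm laser-scanning cytometry, 500–530 nm intensity and object ratio to cell channel. Percent activity normalized to 20 uM Triacsin C.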

[1] = measured here: lipid fluorescence (Fed channel) AC50, cells fed with added oleic acid
[2] = measured here: cell number channel AC50, cells fed with added oleic acid

SMILES	cell number change [%]	AC50 [1]	AC50 [2]
Cc1ccc(OCCNC(=O)c2ccc(C)o2)cc1	25.4	9.2 µM [falling, partial curve]	
Cc1cc(C)c2c(CC(=O)NNC(=O)c3ccccc3)coc2c1	36.5	12.6 µM [rising, partial curve]	12.6 µM [rising, partial curve, poor fit]
O=C(CSc1nccn1-c1ccc(Cl)cc1)NCc1ccc2c(c1)OCO2	107	1.84 µM [rising, full curve]	1.64 µM [rising, full curve]
CC(=O)N1CCCc2cc(S(=O)(=O)CCC(=O)Nc3cccc(C)c3C)ccc21	-12.5	6.51 µM [falling, single point]	0.206 µM [falling, full curve, poor fit]
Cc1ccc(NC(=O)NC2CCCCC2)cc1Cl		2.59 µM [rising, partial curve]	0.92 µM [rising, partial curve]
COc1cc2c(cc1OC)CN(Cc1cc(OC)c(O)c(OC)c1)CC2	66.7		2.31 µM [rising, full curve]
Cc1cccc(OCCCCc2c(C)n[nH]c2C)c1C	-64.4		29.1 µM [falling, single point]
O=c1[nH]c(C2CCN(S(=O)(=O)Cc3ccccc3)CC2)nc2c1nnn2Cc1cccc(Cl)c1	-33.3		18.4 µM [falling, single point]
COCCn1cc(-c2csc(N)n2)c2ccccc21	-18.9	1.64 µM [falling, partial curve]	
CCOC(=O)CC(=O)c1sc2c(c1N)c(=O)[nH]c(=O)n2-c1ccc(OC)cc1	11.7		0.651 µM [rising, single point]
Cc1ccc(S(=O)(=O)N2CCCOC2CNC(=O)C(=O)NCc2cccs2)cc1 (centres undefined)	11.1	10.3 µM [rising, partial curve]	
COc1cc2c(C(=O)Nc3ccc4c(c3)OCO4)cn(CC(C)C)c(=O)c2cc1OC			0.326 µM [rising, full curve]
CCC(OC(=O)c1cccs1)C(=O)NCc1ccco1 (centres undefined)	-101	25.9 µM [falling, partial curve]	25.9 µM [falling, partial curve]
O=P(OC1CCCCC1)(OC1CCCCC1)C(O)c1ccccc1 (centres undefined)	33.9	0.731 µM [falling, full curve]	
Cc1ccc(NC(=O)CSc2nc(=O)n(CCCN3CCOCC3)c3c2CCCC3)cc1		0.00731 µM [rising, full curve, poor fit]	
Cc1cc2c(c(=O)o1)C(Cc1ccccc1)C(C#N)=C(N)O2 (centres undefined)	17.8		
O=c1[nH]c2ccc(Cl)cc2c(-c2ccccc2)c1N1CCN(c2ccccn2)CC1	-0.204	0.184 µM [rising, full curve, poor fit]	
O=C1c2ccccc2C(O)(c2ncc[nH]2)N1CCc1ccccc1 (centres undefined)	36.9		23.1 µM [rising, single point]
CN(C)c1ccc(S(=O)(=O)N(C)C)cc1[N+](=O)[O-]	-5.76	6.51 µM [falling, single point]	2.31 µM [falling, single point]
O=c1cc(-c2ccc(O)cc2)oc2ccc3ccccc3c12	7.52	0.326 µM [rising, partial curve, poor fit]	0.291 µM [rising, partial curve, poor fit]
Cn1c2ccccc2c(=O)c2cc(C#Cc3ccc(N)cc3)ccc21	-11		
O=C(NCCc1ccc(Cl)cc1)C1CCN(C(=O)N2CCOc3ccccc32)CC1	8.93	6.51 µM [rising, single point]	0.651 µM [rising, full curve, poor fit]
Cc1cc(C(=O)CCl)c(C)n1-c1cccc([N+](=O)[O-])c1	-4.27		7.31 µM [falling, single point]
COc1ccc(C(=O)NCC2COc3ccccc3O2)cc1S(=O)(=O)N1CCOCC1 (centres undefined)	-17	6.51 µM [rising, single point]	
CC(=O)Nc1ccc(NC(=O)CC2CCCC2)cc1	8.73		0.0291 µM [rising, full curve, poor fit]
O=S(=O)(c1ccc(F)c(F)c1)N1CCN(CCc2ccccc2)CC1	-1.1	0.731 µM [rising, single point]	
O=C(NNc1cccc(Cl)n1)c1c(F)cccc1F	70.9		13 µM [rising, partial curve]
Cc1cccc(NC(=O)Nc2ccc(C)c(C)c2)n1	59.7		0.259 µM [rising, full curve]

Molecules above with an NH in an aromatic ring, in the order listed:
SMILES	cell number change [%]	AC50 [1]	AC50 [2]
Cc1cccc(OCCCCc2c(C)n[nH]c2C)c1C	-64.4		29.1 µM [falling, single point]
O=c1[nH]c(C2CCN(S(=O)(=O)Cc3ccccc3)CC2)nc2c1nnn2Cc1cccc(Cl)c1	-33.3		18.4 µM [falling, single point]
CCOC(=O)CC(=O)c1sc2c(c1N)c(=O)[nH]c(=O)n2-c1ccc(OC)cc1	11.7		0.651 µM [rising, single point]
O=c1[nH]c2ccc(Cl)cc2c(-c2ccccc2)c1N1CCN(c2ccccn2)CC1	-0.204	0.184 µM [rising, full curve, poor fit]	
O=C1c2ccccc2C(O)(c2ncc[nH]2)N1CCc1ccccc1 (centres undefined)	36.9		23.1 µM [rising, single point]
